Assay results as given in PubChem BioAssay AID328 (DTP/NCI, 2004).
The list shows only some results of the screen, not a fair sample: it is rich in T/C values a quarter to a half above the control, in often repeated tests (any T/C) and in doses without a T/C. Other doses and runs of a compound stand elsewhere. T/C: endpoint of the treated group in % of that of the vehicle group. Some entries give survivors of the animals treated and no T/C: the source files T/C as zero there, which appears to mark a toxic dose or a test without result, not a measured value. Some doses without a T/C left all or most animals alive at the check, yet need not have been tolerated: the source hardly ever lists a survival T/C far under the control, and the zero likely stands for such cases as well. Counts of survivors are from the toxicity check (mostly the fifth day) where no day follows; animals may have died later. Schedules are NCI's codes, read here as Q, the interval in days (D) or hours (H), X, the number of doses. For survival time, the PubChem record calls one and a half times the control and up active, and a quarter to a half above the control has no call in these data; cut-offs in other NCI protocols can differ. Some doses were run more than once; the values are given in rising order. Some T/C values carry the count of animals alive at the toxicity check (mostly the fifth day); without a count, all were alive then.

System: BDF1 mice, P388 leukemia ip, median survival T/C
Assay: NCI In Vivo Anticancer Drug Screen. Data for tumor model P388 Leukemia (intraperitoneal) in B6D2F1 (BDF1) mice
Conditions: T/C endpoint: median survival time, higher T/C = longer survival
Method in brief: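 Steps: implant the tumour, treat one group with compound and another with vehicle, record survival, then divide treated by control.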

[1] = dose: 50.0 mg/kg/injection, schedule: Q01DX009 (ip), vehicle: saline
[2] = dose: 100.0 mg/kg/injection, schedule: Q01DX009 (ip), vehicle: saline
[3] = dose: 200.0 mg/kg/injection, schedule: Q01DX009 (ip), vehicle: Klucel (hydroxypropylcellulose) (HPC)
[4] = dose: 20.0 mg/kg/injection, schedule: Q01DX009 (ip), vehicle: saline
[5] = dose: 25.0 mg/kg/injection, schedule: Q04DX003 (ip), vehicle: saline sonified
[6] = dose: 50.0 mg/kg/injection, schedule: Q01DX009 (ip), vehicle: saline with Tween-80
[7] = dose: 100.0 mg/kg/injection, schedule: Q01DX009 (ip), vehicle: saline with Tween-80
[8] = dose: 200.0 mg/kg/injection, schedule: Q01DX009 (ip), vehicle: saline with Tween-80
[9] = dose: 200.0 mg/kg/injection, schedule: Q04DX003 (ip), vehicle: saline with Tween-80
[10] = dose: 2.5 mg/kg/injection, schedule: Q01DX009 (ip), vehicle: saline
[11] = dose: 12.5 mg/kg/injection, schedule: Q01DX009 (ip), vehicle: Klucel (hydroxypropylcellulose) (HPC)
[12] = dose: 25.0 mg/kg/injection, schedule: Q01DX009 (ip), vehicle: Klucel (hydroxypropylcellulose) (HPC)
[13] = dose: 50.0 mg/kg/injection, schedule: Q01DX009 (ip), vehicle: Klucel (hydroxypropylcellulose) (HPC)

With `CCCCc1c(C(=O)OCC)oc(C(=O)OCC)c(CCCC)c1=O` the T/C (dose: 200.0 mg/kg/injection, schedule: Q04DX003 (ip), vehicle: Klucel (hydroxypropylcellulose) (HPC)) was 129 % of control.

`Cc1cc2nc(C)c(=O)[nH]c2cc1C` was tested, and the survivor count (dose: 400.0 mg/kg/injection, schedule: Q01DX009 (ip), vehicle: Klucel (hydroxypropylcellulose) (HPC)) was 5 of 6.

In the case of `CCN(CC)CCCOC(=O)/C=C/c1c(C)[nH]c(=O)[nH]c1=O`, the survivor count (dose: 6.25 mg/kg/injection, schedule: Q01DX009 (ip), vehicle: saline) was 6 of 6, the survivor count (dose: 12.5 mg/kg/injection, schedule: Q01DX009 (ip), vehicle: saline) was 6 of 6 and the survivor count (dose: 25.0 mg/kg/injection, schedule: Q01DX009 (ip), vehicle: saline) was 6 of 6. For the same compound, the survivor count [1] was 6 of 6 and the survivor count [2] was 5 of 6.

For `Cc1ccc2c(c1)CCCN2C`, the survivor count [2] was 5 of 6 and the survivor count (dose: 200.0 mg/kg/injection, schedule: Q04DX003 (ip), vehicle: saline) was 5 of 6.

`CC(=O)Nc1ccc2c3c(ccc([N+](=O)[O-])c13)CC2` was tested, and the survivor count (dose: 400.0 mg/kg/injection, schedule: Q01DX009 (ip), vehicle: saline) was 2 of 6.

For `C(=N\C(/N=C/c1ccccc1)c1ccccc1)/c1ccccc1`, the survivor count [3] was 6 of 6.

With `CC(C)([NH-])CO.CC(C)([NH-])CO.[Cl][Cd][Cl]` the survivor count [4] was 1 of 6, the survivor count [5] was 0 of 6 and the survivor count (dose: 40.0 mg/kg/injection, schedule: Q04DX003 (ip), vehicle: saline) was 0 of 6.

`Clc1c(CI)ccc(CI)c1Cl` was tested, and the T/C (dose: 11.0 mg/kg/injection, schedule: Q04DX003 (ip), vehicle: saline sonified) was 127 % of control, the T/C (dose: 25.0 mg/kg/injection, schedule: Q01DX009 (ip), vehicle: saline sonified) was 127 % of control and the T/C (dose: 25.0 mg/kg/injection, schedule: Q04DX003 (ip), vehicle: Klucel (hydroxypropylcellulose) (HPC)) was 125 % of control. For the same compound, the T/C [5] was 138 % of control, the survivor count (dose: 37.5 mg/kg/injection, schedule: Q01DX009 (ip), vehicle: saline with Tween-80) was 4 of 6 and the T/C (dose: 37.5 mg/kg/injection, schedule: Q04DX003 (ip), vehicle: saline sonified) was 144 % of control.

`C/C=C/c1ccccc1N/N=C(\Cl)C(=O)OCC` was tested, and the T/C [6] was 128 % of control, the T/C [7] was 128 % of control [5 of 6 alive] and the T/C [8] was 137 % of control [4 of 6 alive].

With `C[N+](C)(Cc1ccccc1)CC(O)COc1ccccc1` (centres undefined) the survivor count [6] was 5 of 6.

In the case of `N#CCC(C#N)N1CCOCC1` (centres undefined), the survivor count (dose: 25.0 mg/kg/injection, schedule: Q01DX009 (ip), vehicle: saline with Tween-80) was 6 of 6, the survivor count [6] was 6 of 6 and the survivor count [7] was 6 of 6. For the same compound, the survivor count [9] was 1 of 6.

In the case of `NC(=O)c1[nH]nc(C2OC(CO)C(O)C2O)c1O` (centres undefined), the T/C (dose: 0.5 mg/kg/injection, schedule: Q01DX009 (ip), vehicle: saline) was 129 % of control, the T/C [10] was 158 and 172 % of control and the survivor count [10] was 6 of 6. The survivor count (dose: 5.0 mg/kg/injection, schedule: Q01DX009 (ip), vehicle: saline) was 6 of 6, the survivor count (dose: 10.0 mg/kg/injection, schedule: Q01DX009 (ip), vehicle: saline) was 6 of 6 and the survivor count [4] was 6 of 6. The survivor count (dose: 40.0 mg/kg/injection, schedule: Q01DX009 (ip), vehicle: saline) was 1 of 6 and the survivor count (dose: 80.0 mg/kg/injection, schedule: Q01DX009 (ip), vehicle: saline) was 0 of 6.

In the case of `CC(=O)Oc1ccc(OC(C)=O)c2c1C(=O)C=CC2=O`, the T/C (dose: 0.37 mg/kg/injection, schedule: Q01DX009 (ip), vehicle: Klucel (hydroxypropylcellulose) (HPC)) was 130 % of control [5 of 6 alive], the T/C (dose: 0.75 mg/kg/injection, schedule: Q01DX009 (ip), vehicle: Klucel (hydroxypropylcellulose) (HPC)) was 142 % of control and the survivor count (dose: 3.12 mg/kg/injection, schedule: Q01DX009 (ip), vehicle: Klucel (hydroxypropylcellulose) (HPC)) was 5 of 6. The survivor count [11] was 6 of 6, the survivor count [12] was 0 of 6 and the survivor count [13] was 0 of 6.

For `Cc1ccc(S(=O)(=O)N/N=C/C(Br)=C(/Br)C(=O)O)cc1`, the T/C [12] was 137 % of control and the survivor count [3] was 4 of 6.

In the case of `NNC(=O)c1ccc(Br)cc1`, the survivor count [3] was 6 of 6 and the survivor count (dose: 400.0 mg/kg/injection, schedule: Q04DX003 (ip), vehicle: Klucel (hydroxypropylcellulose) (HPC)) was 2 of 6.

For `O=C1SCCC1CO` (centres undefined), the survivor count [9] was 6 of 6 and the survivor count (dose: 400.0 mg/kg/injection, schedule: Q04DX003 (ip), vehicle: saline with Tween-80) was 0 of 6.

In the case of `CC(C)(C)c1cc(CO)c(Sc2c(CO)cc(C(C)(C)C)cc2CO)c(CO)c1`, the survivor count (dose: 100.0 mg/kg/injection, schedule: Q01DX001 (ip), vehicle: saline with Tween-80) was 6 of 6 and the survivor count (dose: 200.0 mg/kg/injection, schedule: Q01DX001 (ip), vehicle: saline with Tween-80) was 6 of 6.

With `O=C(Nc1ncc([N+](=O)[O-])s1)c1cccc([N+](=O)[O-])c1` the survivor count [6] was 3 of 6.

In the case of `O=C(N=Nc1c(O)[nH]c2ccccc12)C(=O)Nc1cccc(C(F)(F)F)c1`, the survivor count [7] was 6 of 6 and the survivor count [8] was 6 of 6.

For `CCOC(=O)c1cc2ccccc2n1-c1ccccc1`, the survivor count [7] was 6 of 6 and the survivor count [8] was 6 of 6.

`CC[C@@]12CCCN3CC[C@]4(c5cccc(OC)c5N(C(C)=O)[C@@H]4CC1)[C@H]32` was tested, and the survivor count [13] was 0 of 6.

`NC(=O)C1(NC2CCCCC2)CCN(Cc2ccccc2)CC1` was tested, and the survivor count (dose: 200.0 mg/kg/injection, schedule: Q01DX009 (ip), vehicle: gum acacia) was 3 of 6 and the survivor count (dose: 200.0 mg/kg/injection, schedule: Q04DX003 (ip), vehicle: gum acacia) was 4 of 6.

`CCCCNC(C)(C)CS` was tested, and the survivor count [1] was 1 of 6, the survivor count [2] was 3 of 6 and the survivor count (dose: 200.0 mg/kg/injection, schedule: Q01DX009 (ip), vehicle: saline) was 0 of 6.

In the case of `C=C(C)C(=O)O[C@H]1C[C@@]2(C)OC(=CC2=O)/C(CO)=C\[C@H]2OC(=O)C(=C)[C@H]12`, the survivor count [11] was 6 of 6, the survivor count [12] was 1 of 6 and the survivor count [13] was 0 of 6.

For `COc1ccc(/C=C/c2ccc3ccccc3[n+]2C)cc1OC`, the T/C (dose: 9.37 mg/kg/injection, schedule: Q01DX009 (ip), vehicle: saline) was 145 % of control.

With `CN(C=C(C#N)C#N)c1ccccc1` the survivor count [7] was 5 of 6 and the survivor count [8] was 0 of 6.

`Nc1ncnc2c1c(C(=O)O)cn2C1OC(CO)C(O)C1O` (centres undefined) was tested, and the T/C (dose: 66.0 mg/kg/injection, schedule: Q04DX003 (ip), vehicle: saline with Tween-80) was 145 % of control.

With `c1cc2ccsc2cn1` the survivor count (dose: 100.0 mg/kg/injection, schedule: Q04DX003 (ip), vehicle: saline with Tween-80) was 1 of 6.
